From PubChem BioAssay AID504444 (National Center for Advancing Translational Sciences (NCATS), 2011)
In all, about 360,000 compounds went through this assay and about 7,500 (2.1%) were called active. This list was built around the results that the source calls inconclusive (neither active nor inactive); the mix of calls is not that of the screen. The call rests on the fitted dose curve; in most records, active means well fitted inhibition curve with a large enough effect; inconclusive means small, poorly fitted or top-dose-only effect, or effect the other way; inactive means flat fitted curve, though single readings scatter. A potency beside an inconclusive call is a rough fit, not a confirmed value.

assay: Nrf2 qHTS screen for inhibitors; conditions: A549 ARE-Fluc reporter, luciferase luminescence, 18-24 h; activity change, negative = inhibition: at 46 µM (top of the series); further: nearly all actives have a fitted effect of over 60% in size
Procedure, shortened: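 Nrf2 activity is the BugLite luminescence, read 15 min after reagent at room temperature, following CellTiter-Fluor cytotoxicity readout (30 min, 37C). Compound titrations were applied for 18-24 h to 5000 A549 ARE_Fluc cells/well in 5% FBS OPTI-MEM.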
On the % scale 0 is the no-effect control and ±100 the full control effect; potency means the concentration at half of the fitted maximal effect.

SMILES	Potency	activity change, negative = inhibition
FC(F)Oc1ccc(NC(=S)NC23CC4CC(CC(C4)C2)C3)cc1	inconclusive: 20.6 µM [falling, partial curve, poor fit]	–
CCOc1ccc(/C(CC)=N/NC(=O)C2(C)CC2(Br)Br)cc1 (stereo not given)	inconclusive: 16.4 µM [falling, single point]	–
COc1cccc(CN2C(=O)c3ccccc3NC2c2ccc(OC)c(COc3ccc(NC(C)=O)cc3)c2)c1 (stereo not given)	inconclusive: 23.1 µM [falling, single point]	–
Cc1nnc2n(c1=O)N=C(c1ccc(Cl)cc1)CS2	inconclusive: 2.31 µM [activator, full curve]	–
Cc1nsc(Nc2ccc([N+](=O)[O-])cc2)c1C#N	inconclusive: 2.06 µM [activator, partial curve, poor fit]	–
COCC(=O)OCC(=O)N1N=C(c2ccc(Cl)cc2)CC1c1ccco1 (stereo not given)	–	inactive: -0.81%
Cc1c(O)ccc(/C=N/Nc2ncccc2[N+](=O)[O-])c1O	inconclusive: 20.6 µM [activator, single point]	–
O=C(c1cc(COc2ccc(F)cc2Cl)on1)N1CCCCC1c1cccnc1 (stereo not given)	inconclusive: 29.1 µM [falling, single point]	–
COc1cccc(-c2sc3ccc(OC)cc3c2-c2ccc(OC)cc2F)c1	inconclusive: 14.6 µM [activator, single point]	–
CCOC(=O)N1CC=C2C(C#N)=C(N)C(C#N)(C#N)[C@H](c3ccccc3OCC)[C@H]2C1	active: 16.4 µM	–
Nc1c(C(=O)c2ccccc2)sc(Nc2ccccc2)c1S(=O)(=O)c1ccccc1	inconclusive: 14.6 µM [falling, partial curve, poor fit]	–
Cc1cc(C)n(-c2ccc(C(=O)N3CCN(S(=O)(=O)c4cccc(Br)c4)CC3)cc2)n1	inconclusive: 23.1 µM [falling, partial curve, poor fit]	–
Cc1ccc(C(=O)NC(=S)Nc2ccc3c(c2)OCCO3)c(C)c1	–	inactive: 25.7%
O=C(CSc1nnc(-c2ccccc2F)o1)Nc1ccccc1Cl	inconclusive: 5.8 µM [activator, partial curve, poor fit]	–
CCOc1ccc2nc(NC(=O)c3ccc(OC)c(S(=O)(=O)N4CCOCC4)c3)sc2c1	inconclusive: 25.9 µM [falling, single point]	–
CC(C)(C)c1ccc(C(=O)Nc2sc3c(c2C(=O)O)CCC3)cc1	inconclusive: 1.84 µM [falling, partial curve, poor fit]	–
COc1ccc(-c2csc(N(CCc3ccccc3)C(=O)COc3ccccc3)n2)cc1	inconclusive: 29.1 µM [falling, single point]	–
O=C(c1cc(COc2c(F)cccc2F)on1)N1CCc2ccccc2C1	inconclusive: 2.06 µM [falling, full curve, poor fit]	–
COc1ccc(CC(=O)N2CCN=C2SCc2cccc([N+](=O)[O-])c2)cc1	inconclusive: 29.1 µM [falling, single point]	–
CCN(c1ccccc1)S(=O)(=O)c1ccc(OC)c(NC(=O)c2ccc(=O)[nH]c2)c1	inconclusive: 23.1 µM [falling, partial curve]	–

3 structures from above, ordered by count of non-hydrogen atoms, largest number first.
SMILES	Potency	activity change, negative = inhibition
COc1cccc(-c2sc3ccc(OC)cc3c2-c2ccc(OC)cc2F)c1	inconclusive: 14.6 µM [activator, single point]	–
COCC(=O)OCC(=O)N1N=C(c2ccc(Cl)cc2)CC1c1ccco1 (stereo not given)	–	inactive: -0.81%
Cc1nnc2n(c1=O)N=C(c1ccc(Cl)cc1)CS2	inconclusive: 2.31 µM [activator, full curve]	–

Later entries:

SMILES	Potency	activity change, negative = inhibition
CCC1CC=CC2C1C(=O)N(Cc1ccccc1)C2c1ccc(OC)c(Cl)c1 (stereo not given)	inconclusive: 16.4 µM [falling, single point]	–
CCNC(=S)N(CCc1ccc(OC)c(OC)c1)Cc1cc2cc(OC)ccc2[nH]c1=O	–	inactive: -4.31%
Cn1cnc2c(=O)sc3ccccc3c21	inconclusive: 3.26 µM [falling, full curve, poor fit]	–
COc1ccc(CC(=O)Nc2nc(-c3ccc(OC)c(OC)c3)cs2)cc1OC	active: 14.6 µM	–
Cc1ccc(CCN2C(=O)CCC2(C)C(=O)NCc2cccnc2)cc1 (stereo not given)	inconclusive: 6.51 µM [falling, single point]	–
CC1(C)Cc2c(sc3[nH]c(=S)n(Cc4ccccc4)c(=O)c23)CO1	active: 16.4 µM	–
O=C(Cn1c(=O)oc2cc(S(=O)(=O)N3CCCC3)ccc21)Nc1ccc(F)cc1F	–	inactive: -1.21%
c1ccc(OCCOc2ccccc2-c2nnco2)cc1	inconclusive: 25.9 µM [activator, partial curve]	–
COc1ccc2c(Sc3ccc(Cl)cc3)c(C(=O)N3CCC(C)CC3)[nH]c2c1	inconclusive: 29.1 µM [falling, partial curve, poor fit]	–
O=C(O)c1cc(Sc2ccc(Br)cc2)nc2ccccc12	inconclusive: 3.26 µM [falling, partial curve, poor fit]	–
O=c1[nH]c2cc3c(cc2cc1CN(Cc1nnnn1CC1CCCO1)C1CCCCC1)OCO3 (stereo not given)	inconclusive: 2.91 µM [activator, full curve, poor fit]	–
CCOC(=O)c1cn2nc(N3CCCCC3)ccc2n1	inconclusive: 2.91 µM [activator, partial curve, poor fit]	–
O=C(CSc1c2c(nc3cc(Cl)ccc13)CCCC2)N1CCN(c2ccccc2F)CC1	inconclusive: 29.1 µM [falling, single point]	–
CC(=O)Nc1ccc(S(=O)(=O)Oc2ccc(C(=S)N3CCCCC3)cc2)cc1	active: 20.6 µM	–
O=C(/C=C/c1c(Cl)nc2ccccn12)N1CCN(c2ccc(F)cc2)CC1	inconclusive: 18.4 µM [falling, single point]	–
Cc1cccc(CC(=O)Nc2cc(C)c3c(=O)oc4ccccc4c3n2)c1	inconclusive: 1.64 µM [falling, partial curve, poor fit]	–
COc1ccc(C2CCCN2C(=S)Nc2ccc(C)cc2Cl)cc1OC (stereo not given)	inconclusive: 29.1 µM [falling, single point]	–
O=C(c1ccc(F)cc1)n1nc(-c2cccnc2)nc1NCc1ccc(F)cc1	inconclusive: 5.8 µM [falling, partial curve, poor fit]	–
COc1ccc(Cl)cc1NC(=O)CN(C)C(=O)c1ccc(N2CCCCCC2)c([N+](=O)[O-])c1	inconclusive: 29.1 µM [falling, single point]	–
CC(=O)Nc1ccc2c(c1)ncn2-c1ccc(C)cc1	inconclusive: 10.3 µM [activator, partial curve]	–
